PubChem BioAssay AID602196 – INSERM – 2012

- Screen: 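Knock-downs that protect lung cancer cells from cisplatin or sensitise them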
- System: human A549 lung cancer cells
- Reagent: siRNA pair against human genes
- Timing: 48 h transfection before cisplatin; time from cisplatin to read-out not stated
- Challenge: cisplatin at a dose killing half of control-siRNA cells; exact dose and duration not given
- Detection: 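Cisplatin cell death as a shift from the 50% death seen with control siRNA; siRNAs toxic or growth-blocking alone scored 0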
- Scale: two-siRNA summed score (-2 to +2): higher = both siRNAs protect from cisplatin killing; -2 means both sensitise; mean protection from cisplatin (shift in death): higher = protection from cisplatin killing
- Rule for the call: 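Each siRNA scores 0 if harmful alone by LDH or WST-1, otherwise +1 if it reduces and -1 if it increases cisplatin killing; a gene is active when both siRNAs agree (sum +2 or -2)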
- Meaning of the calls: active = both siRNAs shift cisplatin killing the same way; inactive = no consistent shift, or siRNA harmful alone
Here is a random part of about 23,000 deposited reagents. 455 of them (2%) were called active. 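Active includes both protection and sensitisation; some change values fall well beyond the stated -50 to +50 range.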 Unmarked entries are inactive. Reagents against one gene are numbered here. Further read-outs or replicates are left out here. Not given: the amount of reagent.

gene knocked down | reagent | two-siRNA summed score (-2 to +2) | mean protection from cisplatin (shift in death) (%)
THRB | 1 | 0 | 12.5
SLC33A2 | 1 | -1 | -4.9
LOC440788 | 1 | 0 | 13.6
MAP2K7 | 1 | 0 | 6.3
CDR2-DT | 1 | 1 | 10.7
LOC440033 | 1 | 0 | 22.7
LOC389211 | 1 | 0 | 10.5
LOC442057 | 1 | 1 | 15.3
LAMP5 | 1 | -1 | -8.3
CATSPERE | 1 | 1 | 5.3
BTF3L4 | 1 | 1 | 16.3
NXF2 | 1 | -1 | -3.8
MUC7 | 1 | 0 | 8.8
AFAP1L1 | 1 | 0 | 5.9
LOC401268 | 1 | 0 | 9.2
KRT39 | 1 | 0 | 15.4
WWC2-AS2 | 1 | -1 | -10.6
OCIAD2 | 1 | 0 | 11.9
OCIAD2 | 2 | 1 | 20
SPART | 1 | 0 | 13
DNAJB5 | 1 | 0 | 12.7
VPS26B | 1 | 0 | 2.3
OR6F1 | 1 | 0 | 7

Individual results from above.
For “mean protection from cisplatin (shift in death) (%)”, LOC440788 is entered as 13.6
Value of MAP2K7 in “two-siRNA summed score (-2 to +2)”: 0
